Test results: paper PMC10740258
Results are given in words; binding and its absence hold for the method and conditions named. In cells and extracts the contact can be indirect. Binding calls can cover weak binding; strength is not graded here. Where a sequence is shown, tags or fusion partners need not be part of it.

Molecular target: T1, FLAG-Tagged human NUAK1 WT (human) (UniProt O60285)
T1 sequence: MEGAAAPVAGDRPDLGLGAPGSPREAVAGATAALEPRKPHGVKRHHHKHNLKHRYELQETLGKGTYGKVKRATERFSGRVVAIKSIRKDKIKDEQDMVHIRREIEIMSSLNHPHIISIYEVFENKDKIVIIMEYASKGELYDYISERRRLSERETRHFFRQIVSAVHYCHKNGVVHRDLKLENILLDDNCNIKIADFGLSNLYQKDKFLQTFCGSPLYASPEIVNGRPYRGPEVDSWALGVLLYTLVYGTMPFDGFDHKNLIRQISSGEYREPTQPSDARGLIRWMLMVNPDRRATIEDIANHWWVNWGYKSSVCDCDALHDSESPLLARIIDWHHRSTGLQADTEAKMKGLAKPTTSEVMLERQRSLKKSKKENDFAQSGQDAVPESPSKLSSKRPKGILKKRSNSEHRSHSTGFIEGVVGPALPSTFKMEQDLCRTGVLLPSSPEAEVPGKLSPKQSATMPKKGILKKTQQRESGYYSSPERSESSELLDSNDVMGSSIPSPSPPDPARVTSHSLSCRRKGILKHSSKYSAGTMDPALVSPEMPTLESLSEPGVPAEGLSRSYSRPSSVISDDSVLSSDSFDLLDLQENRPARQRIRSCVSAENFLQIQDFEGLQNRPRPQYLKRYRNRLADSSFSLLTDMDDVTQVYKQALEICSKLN
Experiment: proximity ligation; Duolink In Situ Red kit Mouse/Rabbit; MDA-MB-231 cells expressing HA-NUAK1, FLAG-NUAK1 or empty vector, serum-starved overnight and stimulated with EGF for 10 min; n = 3

Substance: Akt (endogenous) (human (endogenous in MDA-MB-231))
- binding: binds
